# PubChem BioAssay AID652259, Drosophila RNAi Screening Center, 2013
# Screen: 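Knock-downs that push a Wingless-driven reporter up or down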 (primary screen)
# System: Drosophila clone 8 imaginal disc epithelial cells
# Knock-down reagent: long dsRNA against Drosophila genes
# Challenge: pathway stimulated by co-transfected Wingless expression plasmid
# Read-out: 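Firefly luciferase from a tcf-site Wingless reporter, measured alongside co-transfected Renilla luciferase that tracks transfection; pathway stimulated by a Wingless plasmid; the firefly-to-Renilla ratio is not deposited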
# Direction: firefly reporter light: higher = more Wg reporter light, before normalisation; Renilla control light: higher = more transfected or surviving cells
# Hit rule: 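Strong candidates differ from their plate mean by at least two out of four per-plate statistical tests; weak candidates meet just one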
# Calls: active = candidate regulator (raises or lowers reporter); inactive = not a candidate
# The deposit covers about 22,000 reagents; this is a random part of those with a known target gene and a result. In the full data, 233 (1.1%) are marked active. 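Light values are raw, unnormalised plate reads; the ratio scores behind the reporter calls were not deposited.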 Names joined by + are all predicted targets of the reagent. The record does not give: the amount of reagent, the time to read-out, the dose of the treatment.
The opening 4 records, to show the layout:
gene knocked down,DRSC id,"firefly reporter light, replicate 1","firefly reporter light, replicate 2","Renilla control light, replicate 1","Renilla control light, replicate 2",Call
Tim13,DRSC09848,8298,,3232,,inactive
l(1)sc (lethal of scute),DRSC18789,21750,,13408,,inactive
Alp12 (Alkaline phosphatase 12),DRSC02515,3104,10884,1043,3287,inactive
Archease,DRSC16025,32210,,5715,,inactive

The list itself, from the start:
gene knocked down,DRSC id,"firefly reporter light, replicate 1","firefly reporter light, replicate 2","Renilla control light, replicate 1","Renilla control light, replicate 2",Call
Tim13,DRSC09848,8298,,3232,,inactive
l(1)sc (lethal of scute),DRSC18789,21750,,13408,,inactive
Alp12 (Alkaline phosphatase 12),DRSC02515,3104,10884,1043,3287,inactive
Archease,DRSC16025,32210,,5715,,inactive
NK7.1,DRSC16755,6601,,1653,,inactive
CG5793 + Obp93a,DRSC15220,18569,,5024,,inactive
Mvl (Malvolio),DRSC16752,4048,5688,1066,1600,inactive
CG6700,DRSC02980,11988,,3072,,inactive
mRpS16 (mitochondrial ribosomal protein S16),DRSC07152,6282,,2580,,inactive
Usp15-31 (Ubiquitin specific protease 15/31),DRSC04426,24884,,6843,,inactive
Usp15-31 (Ubiquitin specific protease 15/31),DRSC04532,3184,7723,506,1104,inactive
CG30291,DRSC03842,11186,,6221,,inactive
CG14492,DRSC06463,6656,,1994,,inactive
CG34050 (retired record),DRSC09067,2916,,563,,inactive
Npc2g (Niemann-Pick type C-2g),DRSC14296,9040,,3270,,inactive
CG15450,DRSC20522,12778,,7232,,inactive
ema (endosomal maturation defective),DRSC14536,25716,,6807,,inactive
B9d1,DRSC14993,15473,,4466,,inactive
OtopLc (Otopetrin-like c),DRSC18082,18258,,8450,,inactive
OtopLc (Otopetrin-like c),DRSC18083,10832,,7307,,inactive
OtopLc (Otopetrin-like c),DRSC18132,16432,,8403,,inactive
Rad51D (Rad51 recombinase D),DRSC06840,2792,10060,801,3180,inactive
otk (off-track),DRSC07658,10624,,2909,,inactive
HDAC4 (Histone deacetylase 4),DRSC19780,24812,,12104,,inactive
Picot,DRSC07508,18061,,5401,,inactive
CG34049,DRSC00104,16690,,10416,,inactive
RhoGAP5A (Rho GTPase activating protein at 5A),DRSC18294,3765,5876,1122,1938,inactive
OSCP1,DRSC06304,5431,,2237,,inactive
knk (knickkopf),DRSC15993,16465,,4274,,inactive
CG15098,DRSC06527,6120,,2464,,inactive
raw,DRSC03599,2609,5356,725,2583,inactive
raw,DRSC03600,1563,4048,544,1750,inactive
Prim2 (DNA primase subunit 2),DRSC11610,2308,,1418,,inactive
CRAT (Carnitine O-Acetyl-Transferase),DRSC12523,15473,,4810,,inactive
CG17122,DRSC10245,16933,,6468,,inactive
Cyp6w1 (Cytochrome P450 6w1),DRSC04909,7381,,3217,,inactive
CG3735,DRSC04411,13325,,3221,,inactive
l(3)80Fg (lethal (3) 80Fg),DRSC21645,4.53e5,5.22e5,1.97e5,1.98e5,inactive
l(3)80Fg (lethal (3) 80Fg),DRSC22171,7.78e5,8.83e5,3.41e5,3.10e5,inactive
Iswi (Imitation SWI),DRSC07446,5088,,1287,,inactive
CG16964,DRSC02546,2640,5468,1064,3200,inactive
CG13390,DRSC02261,1978,7360,792,2928,inactive
PGRP-SA (Peptidoglycan recognition protein SA),DRSC19420,23850,,8422,,inactive
Ostgamma (Oligosaccharide transferase gamma subunit),DRSC03074,6060,,3697,,inactive
CG3061,DRSC15460,14272,,1954,,inactive
Inos (myo-inositol-1-phosphate synthase),DRSC07655,2224,7606,466,2077,inactive
CG34210,DRSC04579,4441,10146,810,2252,inactive
CR46300 (pseudo),DRSC12467,2188,,1447,,inactive
kin17,DRSC11890,17904,,3793,,inactive
